Measurements from patent US20020128189A1, “Ubiquitination of the transcription factor E2A” (President and Fellows of Harvard College, a Massachusetts …, priority 1996, published 2002).
Results are given in words; binding and its absence hold for the method and conditions named. Some entries that bind do so weakly or less than the wild type. Tags and fused reporters may be left off the sequences shown.

The chains behind the UniProt entries cited, without tags or fusion partners. Residues count along the entry.
UniProt P15923, residues 477-654: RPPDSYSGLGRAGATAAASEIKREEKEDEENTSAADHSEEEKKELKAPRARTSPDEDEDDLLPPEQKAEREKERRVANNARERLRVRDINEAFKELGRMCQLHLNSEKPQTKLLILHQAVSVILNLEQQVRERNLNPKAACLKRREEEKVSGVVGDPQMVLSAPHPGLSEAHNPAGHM

Target: LexA-E12477-654 (amino acids 477 to 654 of human E12 fused to LexA) (human) (UniProt P15923)
Experiment: yeast interaction trap screen of a rat aorta cDNA library with the LexA-E12477-654 bait

Row | binding | Binder
1 | binds | Id3 (clone of the rat aorta cDNA library, activation-domain fusion) (protein, UniProt P41138 1-119, looked up, not shown: large carriers) MKALSPVRGCYEAVCCLSERSLAIARGRGKSPSAEEPLSLLDDMNHCYSRLRELVPGVPRGTQLSQVEILQRVIDYILDLQVVLAEPAPGPPDGPHLPIQTAELTPELVISKDKRSFCH
2 | binds | Id1 (clone of the rat aorta cDNA library, activation-domain fusion) (protein, UniProt P41135 1-164, looked up, not shown: large carriers) MKVASSSAAATAGPSCSLKAGRTAGEVVLGLSEQSVAISRCAGTRLPALLDEQQVNVLLYDMNGCYSRLKELVPTLPQNRKVSKVEILQHVIDYIRDLQLELNSESEVATAGGRGLPVRAPLSTLNGEISALAAEVRSESEYYIILLWETKATGGGCPPYFSGA
